Variants at the background level are over-represented here. Some results are limits rather than exact numbers.

First the molecules themselves.
B1: tRNA (parent)
chain: GUUCCGUUGGCGUAAUGGUAACGCGUCUCCCUCCUAAGGAGAAGACUGCGGGUUCGAGUCCCGUACGGAACG

In the series the parent is B1. In words: yeast fitness relative to wild type (ratio to wild type); higher = fitter; tRNA-Arg(CCU), competitive growth, 37 C, YPD. The method, boiled down: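 Amplicons of the tRNA-Arg(CCU) gene were sequenced, 100-nucleotide paired-end, from the start population and from each end population of a pooled yeast competition. The competition, in six parallel replicates, lasted 24 hours in YPD at 37°C. Fitness relative to wild type was calculated from changes in genotype frequencies. Genotypes had to have ≥ 100 starting reads, and estimates < 0.5 were set to 0.5.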
Consider C24G C29G A37G G52A C62U, for which the yeast fitness was at most 0.5.
The value for C31G C34U A40C G41A was at most 0.5; that for C30G A42U A45G A70C was at most 0.5.
Under C5U U47A G68C stands 0.534; under G9A C11A C30G C46U G67A, at most 0.5; under C22U C34G A36U A70G, at most 0.5.
The value for C4U A42G G67U was at most 0.5; that for G12A U13A A14G A21G C33U was at most 0.5.
Regarding C29G G48A U59C A69U, the yeast fitness is at most 0.5.
As for A15G A21G C29A, the yeast fitness was at most 0.5.
Under G10C U26C C30U C31G A43G stands at most 0.5.
For G9A G17A A43G A45G C62G, the yeast fitness was at most 0.5.
With C29U A65C A69C, the yeast fitness was at most 0.5.
Under G6C A14C A42G stands at most 0.5; under G6C C31U C34G, at most 0.5.
The value for U19G A65C G67A was at most 0.5; that for U7A G12A A14C G25A was at most 0.5; that for G23U A36C C46U G50C was at most 0.5.
The value for A14C G18A G44A was at most 0.5; that for A15C C30G A69U was at most 0.5; that for C5U C24U U28C C30A was at most 0.5.
As to C5A G25A U28C C31U A40C A42G, the yeast fitness is at most 0.5.
Under G6A U47A G68U stands at most 0.5; under G38C C46A C66G, at most 0.5.
Under A42U C46A C49A C62U stands at most 0.5; under C4A C22U C33G A45C C49U U53G A69C, at most 0.5; under G12A G41A G51C, at most 0.5.
Under G9C U13C C31G A65U stands at most 0.5; under U26C A37G C49G G63C G68C, at most 0.5; under G10A C11A A70U, at most 0.5.
As to U2G C31U U53A C60G G67A A70C, the yeast fitness was at most 0.5.
Regarding G6C A37G G51A C61G, the yeast fitness is at most 0.5.
As for C4U A20G A57U, the yeast fitness was at most 0.5.
The value for C11A C24U C62A was at most 0.5; that for C24U C31G U54C C62G was at most 0.5.
Under A14C G48C stands 0.658; under U13G C27A U28A C33U A43G U59C, at most 0.5; under C5U G12A G17C U26G G67A, at most 0.5.
Under A15G A45U G48A C55A G63A stands at most 0.5; under C4A G9C C30A G39A G58A, at most 0.5.
For U26C U28A G58A G68A, the yeast fitness is at most 0.5.
Regarding A20U A42C C62A, the yeast fitness is at most 0.5.
The value for C4G A15U C33A G52C G67A was at most 0.5; that for U13G C22U G25A A45C C61U was at most 0.5.
In the case of C5G G10C G25A G51A, the yeast fitness is at most 0.5.
Regarding C11G A14U A43U G48A, the yeast fitness is at most 0.5.
For the variant U2A C5A C30A A42C A43G G56A A57U, the yeast fitness is at most 0.5.
Under A37C C55A C62U stands at most 0.5; under U7G C30U A36G C55G, at most 0.5; under A20G A21U A42C, 0.547.
The value for C11U C31U A57C was at most 0.5; that for A20C C55U was 0.612.
Under C11U C31G stands 0.791; under G23C U26C C46G G63A, at most 0.5; under G9C G39C A40G, at most 0.5.
With G10C U47G C62G G68A, the yeast fitness was at most 0.5.
With U54A C61G A65U, the yeast fitness was at most 0.5.
Under A45U U54C A57U C62U stands at most 0.5; under U16G C30A C46G U54C, at most 0.5.
Under G10C C29A C33A C61G stands at most 0.5.
Under C5A U16G A20U stands at most 0.5; under C22G A36U C55U G56A, at most 0.5; under C5U G12A A69C, 0.724.
With U2C C4U A37C C60G A65U, the yeast fitness is at most 0.5.
Turning to U7C A36C G63U, the yeast fitness was at most 0.5.
Consider G9A C11G C33U A69U, for which the yeast fitness was at most 0.5.
The value for C24G C27A C31U A43G C61U A65C was at most 0.5; that for A21C A36C G56A was 0.562; that for A21G G52A U53C G56A A57C A69U was at most 0.5.
The value for G38C G41C C61U was at most 0.5.
As for C5G A21G, the yeast fitness is 0.997.
In the case of G51C G56C C61A, the yeast fitness is at most 0.5.
Under A43C G67A stands 0.685; under G25C C30U C61G, 0.526.
Under C11A G25C G38A stands at most 0.5; under A14U C22A, 0.668; under A37U U47A G52U, at most 0.5.
The value for G9A C60G C61A G63A was at most 0.5; that for C5G A14G G18C C24U G67U was at most 0.5.
As for C4U G10A C11G A20G C27G C29U A65U, the yeast fitness is at most 0.5.
The value for A14U C24G U26A C29G U32A was at most 0.5; that for U47G G67A A69U was at most 0.5; that for C34A G44C C61G G68A was at most 0.5.
Under A20C U35A A36G G44C stands at most 0.5; under A15G U35G C66G A69U, at most 0.5; under C5U A14C, 0.593.
The value for U28C G39C G44C C46U was at most 0.5; that for U8G U16A A36C was at most 0.5.
For the variant U19A C24A G48C U54G C55U C66U, the yeast fitness was at most 0.5.
The value for U3A U59A A70G was at most 0.5.
The value for A14C C27U A43U U54C U59G was at most 0.5.
For the variant G12C U47A A70G, the yeast fitness turned out to be 0.554.
Take G6C G9C C29A C34U: the yeast fitness is at most 0.5.
As to C11U A14U C29U A70G, the yeast fitness is at most 0.5.
Under G10U G17A C31G stands at most 0.5; under C5G U28A C55G, at most 0.5; under A14U U16G U19A G56A G67A, at most 0.5.
Under U7A A21G U32C U59G C66U A70C stands at most 0.5; under U2G U26C C46G, at most 0.5.
The value for A15U C24A G25A G50U U54C G68C was at most 0.5.
In the case of U7A G10U, the yeast fitness worked out at 0.614.
Under C24U G39A A65U stands 0.528; under C4A A14C U26C A36G, at most 0.5.
Under C5G U13G A20U A37G G51A C61G stands at most 0.5; under G6A U16C C27A, at most 0.5.
Take G38U G50A G67C: the yeast fitness was at most 0.5.
Under U3C C24G C31A A43U A65C A70G stands at most 0.5; under U13A C31A G44A A57G, at most 0.5.
The value for C24G C31A A69C was at most 0.5.
Under C5U A45C G56C stands 0.572; under C34U A65U, 0.574; under C5U G6C C11A C31G A36C C60G, at most 0.5.
As to U19C A20U C46A A69U, the yeast fitness was at most 0.5.
The value for G6C C11A A40U G52C U53A A65C was at most 0.5.
Regarding U16A G67U, the yeast fitness was 0.85.
The value for G12A C24G A40C A43C C46U was at most 0.5; that for G6C U7C C24U C29G C49A G68A was at most 0.5; that for U16C C27U C29A A40G A43C was at most 0.5.
The value for C4G A21G G56U G58C was at most 0.5; that for G9A G25U C29A G56C was at most 0.5.
Under U7G A14G C22U G38A C49A C55A A69C stands at most 0.5; under A14G C22U C34U, at most 0.5; under C31U A37U A45C C60G, at most 0.5.
With C22U A37C G41C, the yeast fitness is at most 0.5.
On to U8C G23C C33G C49U, for which the yeast fitness is at most 0.5.
With G10C U47C G67C, the yeast fitness was 0.536.
Consider U8C G9A U13G C62U, for which the yeast fitness was at most 0.5.
In the case of G6A G18C C30G C34A A37C A65C, the yeast fitness was at most 0.5.
Under C4A U13G U32G G58A stands at most 0.5.
Consider U3A U13C G68A, for which the yeast fitness was found to be 0.528.
The value for G10A C11U A15G C30U U47C C61G was at most 0.5; that for G9C U28A A40C U47C G52A was at most 0.5.
Under U7A C27U G58C C61U stands at most 0.5.
Turning to C4G G17A A57U U59C, the yeast fitness was at most 0.5.
The value for C5G C22G G67C was at most 0.5; that for C22G A42C G52A C62U was at most 0.5.
The value for U8A A14C C31A G41C A43G C49A G56A was at most 0.5; that for U26A C30U C62U C66A was at most 0.5; that for G18C C55U A70G was at most 0.5.
The value for C5A A14U A21G G52A was 0.533.
Regarding C4G C49U C66U, the yeast fitness amounted to 0.681.
As for G9A U16A A42C U53C C62A, the yeast fitness is at most 0.5.
Consider U2C C22G G51C A70G, for which the yeast fitness is at most 0.5.
The value for C4U G39C C55U was at most 0.5; that for G10A C34U was at most 0.5; that for A20C C27A G52C U54C was at most 0.5.
Under C4A U26A U32G A43G G50A stands at most 0.5; under A14G U35C A57G, at most 0.5; under G6C C22A G41A G44C C49U C66U, at most 0.5.
Under G38A G48A C49G G58A stands at most 0.5; under C31A A36U A40C G52C A65C A70G, at most 0.5; under C27G C31U C49G U59A, at most 0.5.
As to C55A G67A, the yeast fitness was 0.658.
U2C C29U: the yeast fitness is 0.81.
Under C4A U7A A14G G17C G52C C55U A65U stands at most 0.5.
The value for C4A G17A C27G C55U G63A was at most 0.5; that for C34U U64A G67C A69U was at most 0.5.
The value for C5G C11A C30G U64A was at most 0.5.
Turning to C5U U35A G56A A65G C66A G68C, the yeast fitness was at most 0.5.
The value for A36C U47A G48C A57C A65U was at most 0.5.
The value for A37G C46U U59G C66U was at most 0.5.
The value for G10A U16C C31U A57C was at most 0.5; that for G6A U7G G25C A45U G56A was at most 0.5.
Take G25A C61A C66A: the yeast fitness is at most 0.5.
Under C4A G18A G25C stands 0.515; under A15C A21C C30U, at most 0.5.
Under C5U G23A C31U stands at most 0.5.
